Article PMC6724258
Results are given in words; binding and its absence hold for the method and conditions named. In cells and extracts the contact can be indirect. Some results given as binding are weak or reduced against the parent protein; the word gives no strength.

Protein sequences, listed by entry. Tags and fused reporters are not part of them. Lines headed by an entry give the natural chain unless they say otherwise; changes in a name come on top. Chains listed by the source or under a name are the forms on record and can include a tag or linker.
UniProt Q9UBK9: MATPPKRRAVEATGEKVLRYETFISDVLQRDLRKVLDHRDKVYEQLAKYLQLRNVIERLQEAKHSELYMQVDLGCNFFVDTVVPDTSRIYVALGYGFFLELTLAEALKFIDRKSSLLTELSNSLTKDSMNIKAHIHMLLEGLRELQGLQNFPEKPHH
HA-EZH2 (Q15910-2, form named): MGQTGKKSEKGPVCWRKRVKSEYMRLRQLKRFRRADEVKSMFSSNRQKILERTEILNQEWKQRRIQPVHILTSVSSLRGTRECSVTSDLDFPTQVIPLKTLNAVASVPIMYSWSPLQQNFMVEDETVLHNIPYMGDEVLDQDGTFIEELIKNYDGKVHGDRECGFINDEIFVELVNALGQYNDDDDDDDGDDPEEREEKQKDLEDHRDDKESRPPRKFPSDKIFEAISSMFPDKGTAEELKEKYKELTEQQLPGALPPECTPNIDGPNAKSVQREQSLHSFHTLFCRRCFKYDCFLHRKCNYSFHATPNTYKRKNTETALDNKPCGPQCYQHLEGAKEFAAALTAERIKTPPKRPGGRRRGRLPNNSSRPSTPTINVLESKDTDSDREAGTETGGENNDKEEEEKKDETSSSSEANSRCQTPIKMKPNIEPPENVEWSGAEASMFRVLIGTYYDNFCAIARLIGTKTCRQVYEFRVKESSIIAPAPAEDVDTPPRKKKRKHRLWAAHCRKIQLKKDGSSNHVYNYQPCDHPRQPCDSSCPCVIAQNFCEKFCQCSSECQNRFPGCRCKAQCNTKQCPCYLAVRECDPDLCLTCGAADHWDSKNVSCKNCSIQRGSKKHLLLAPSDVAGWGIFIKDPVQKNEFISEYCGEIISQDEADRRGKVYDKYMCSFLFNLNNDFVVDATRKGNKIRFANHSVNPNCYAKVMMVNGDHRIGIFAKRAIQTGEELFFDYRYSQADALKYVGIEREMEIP

How the values were obtained:
[1] = target: GST-UXT (human) (UniProt Q9UBK9); experiment: pull-down; GST, GST-EZH2 or GST-UXT purified from E. coli on glutathione-Sepharose 4B, incubated with lysates of HEK293T cells transfected with Flag-UXT or Flag-EZH2; immunoblot with anti-Flag; only the target purified
[2] = target: Flag-UXT (human) (UniProt Q9UBK9); experiment: co-IP; co-transfected 786-O cells (EZH2 wild type), whole cell lysate, precipitated with anti-Flag, blotted with anti-Myc or anti-HA
[3] = target: Flag-UXT (human) (UniProt Q9UBK9); experiment: co-IP; co-transfected HEK293T (293 T) cells, whole cell lysate, precipitated with anti-Flag, blotted with anti-Myc or anti-HA; in some panels with overexpressed EZH2 or UXT

binding [1] | binding [2] | binding [3] | Substance
binds | – | – | Flag-EZH2 (from UniProt Q15910-2 1-751)
– | binds | binds | HA-EZH2 (from UniProt Q15910-2 1-751)
